Experimental data from patent US20260124194A1 (priority 2022, published 2026).

Tested on: Rb1 cKO retinoblastoma mice

SMILES: CC(C)n1c(=O)c(C(=O)N[C@H]2C[C@H]3CC[C@@H](C2)N3C[C@@H](O)CN(C)S(C)(=O)=O)cc2ccccc21 [velusetrag, 1-isopropyl-2-oxo-1,2-dihydroquinoline-3-carboxylic acid {(1S,3R,5R)-8-[(R)-2-hydroxy-3-(methanesulfonyl-methyl-amino)propyl]-8-azabicyclo[3.2.1]oct-3-yl}amide]
- knock out mice that died (Rb1 cKO mice, 1 or 3 mg/kg ip, control group 40% died within 15 days after start of treatment): 10%
- Lethality (mouse, in vivo, ip): 1/10
